# The list shows a part of the results. The data scatter; read single values as rough.
# The chains behind the UniProt entries cited, without tags or fusion partners. Where a name states a change or a piece, a line headed by the entry shows the natural chain unless it says otherwise. Residues count along the entry.
# UniProt O14686: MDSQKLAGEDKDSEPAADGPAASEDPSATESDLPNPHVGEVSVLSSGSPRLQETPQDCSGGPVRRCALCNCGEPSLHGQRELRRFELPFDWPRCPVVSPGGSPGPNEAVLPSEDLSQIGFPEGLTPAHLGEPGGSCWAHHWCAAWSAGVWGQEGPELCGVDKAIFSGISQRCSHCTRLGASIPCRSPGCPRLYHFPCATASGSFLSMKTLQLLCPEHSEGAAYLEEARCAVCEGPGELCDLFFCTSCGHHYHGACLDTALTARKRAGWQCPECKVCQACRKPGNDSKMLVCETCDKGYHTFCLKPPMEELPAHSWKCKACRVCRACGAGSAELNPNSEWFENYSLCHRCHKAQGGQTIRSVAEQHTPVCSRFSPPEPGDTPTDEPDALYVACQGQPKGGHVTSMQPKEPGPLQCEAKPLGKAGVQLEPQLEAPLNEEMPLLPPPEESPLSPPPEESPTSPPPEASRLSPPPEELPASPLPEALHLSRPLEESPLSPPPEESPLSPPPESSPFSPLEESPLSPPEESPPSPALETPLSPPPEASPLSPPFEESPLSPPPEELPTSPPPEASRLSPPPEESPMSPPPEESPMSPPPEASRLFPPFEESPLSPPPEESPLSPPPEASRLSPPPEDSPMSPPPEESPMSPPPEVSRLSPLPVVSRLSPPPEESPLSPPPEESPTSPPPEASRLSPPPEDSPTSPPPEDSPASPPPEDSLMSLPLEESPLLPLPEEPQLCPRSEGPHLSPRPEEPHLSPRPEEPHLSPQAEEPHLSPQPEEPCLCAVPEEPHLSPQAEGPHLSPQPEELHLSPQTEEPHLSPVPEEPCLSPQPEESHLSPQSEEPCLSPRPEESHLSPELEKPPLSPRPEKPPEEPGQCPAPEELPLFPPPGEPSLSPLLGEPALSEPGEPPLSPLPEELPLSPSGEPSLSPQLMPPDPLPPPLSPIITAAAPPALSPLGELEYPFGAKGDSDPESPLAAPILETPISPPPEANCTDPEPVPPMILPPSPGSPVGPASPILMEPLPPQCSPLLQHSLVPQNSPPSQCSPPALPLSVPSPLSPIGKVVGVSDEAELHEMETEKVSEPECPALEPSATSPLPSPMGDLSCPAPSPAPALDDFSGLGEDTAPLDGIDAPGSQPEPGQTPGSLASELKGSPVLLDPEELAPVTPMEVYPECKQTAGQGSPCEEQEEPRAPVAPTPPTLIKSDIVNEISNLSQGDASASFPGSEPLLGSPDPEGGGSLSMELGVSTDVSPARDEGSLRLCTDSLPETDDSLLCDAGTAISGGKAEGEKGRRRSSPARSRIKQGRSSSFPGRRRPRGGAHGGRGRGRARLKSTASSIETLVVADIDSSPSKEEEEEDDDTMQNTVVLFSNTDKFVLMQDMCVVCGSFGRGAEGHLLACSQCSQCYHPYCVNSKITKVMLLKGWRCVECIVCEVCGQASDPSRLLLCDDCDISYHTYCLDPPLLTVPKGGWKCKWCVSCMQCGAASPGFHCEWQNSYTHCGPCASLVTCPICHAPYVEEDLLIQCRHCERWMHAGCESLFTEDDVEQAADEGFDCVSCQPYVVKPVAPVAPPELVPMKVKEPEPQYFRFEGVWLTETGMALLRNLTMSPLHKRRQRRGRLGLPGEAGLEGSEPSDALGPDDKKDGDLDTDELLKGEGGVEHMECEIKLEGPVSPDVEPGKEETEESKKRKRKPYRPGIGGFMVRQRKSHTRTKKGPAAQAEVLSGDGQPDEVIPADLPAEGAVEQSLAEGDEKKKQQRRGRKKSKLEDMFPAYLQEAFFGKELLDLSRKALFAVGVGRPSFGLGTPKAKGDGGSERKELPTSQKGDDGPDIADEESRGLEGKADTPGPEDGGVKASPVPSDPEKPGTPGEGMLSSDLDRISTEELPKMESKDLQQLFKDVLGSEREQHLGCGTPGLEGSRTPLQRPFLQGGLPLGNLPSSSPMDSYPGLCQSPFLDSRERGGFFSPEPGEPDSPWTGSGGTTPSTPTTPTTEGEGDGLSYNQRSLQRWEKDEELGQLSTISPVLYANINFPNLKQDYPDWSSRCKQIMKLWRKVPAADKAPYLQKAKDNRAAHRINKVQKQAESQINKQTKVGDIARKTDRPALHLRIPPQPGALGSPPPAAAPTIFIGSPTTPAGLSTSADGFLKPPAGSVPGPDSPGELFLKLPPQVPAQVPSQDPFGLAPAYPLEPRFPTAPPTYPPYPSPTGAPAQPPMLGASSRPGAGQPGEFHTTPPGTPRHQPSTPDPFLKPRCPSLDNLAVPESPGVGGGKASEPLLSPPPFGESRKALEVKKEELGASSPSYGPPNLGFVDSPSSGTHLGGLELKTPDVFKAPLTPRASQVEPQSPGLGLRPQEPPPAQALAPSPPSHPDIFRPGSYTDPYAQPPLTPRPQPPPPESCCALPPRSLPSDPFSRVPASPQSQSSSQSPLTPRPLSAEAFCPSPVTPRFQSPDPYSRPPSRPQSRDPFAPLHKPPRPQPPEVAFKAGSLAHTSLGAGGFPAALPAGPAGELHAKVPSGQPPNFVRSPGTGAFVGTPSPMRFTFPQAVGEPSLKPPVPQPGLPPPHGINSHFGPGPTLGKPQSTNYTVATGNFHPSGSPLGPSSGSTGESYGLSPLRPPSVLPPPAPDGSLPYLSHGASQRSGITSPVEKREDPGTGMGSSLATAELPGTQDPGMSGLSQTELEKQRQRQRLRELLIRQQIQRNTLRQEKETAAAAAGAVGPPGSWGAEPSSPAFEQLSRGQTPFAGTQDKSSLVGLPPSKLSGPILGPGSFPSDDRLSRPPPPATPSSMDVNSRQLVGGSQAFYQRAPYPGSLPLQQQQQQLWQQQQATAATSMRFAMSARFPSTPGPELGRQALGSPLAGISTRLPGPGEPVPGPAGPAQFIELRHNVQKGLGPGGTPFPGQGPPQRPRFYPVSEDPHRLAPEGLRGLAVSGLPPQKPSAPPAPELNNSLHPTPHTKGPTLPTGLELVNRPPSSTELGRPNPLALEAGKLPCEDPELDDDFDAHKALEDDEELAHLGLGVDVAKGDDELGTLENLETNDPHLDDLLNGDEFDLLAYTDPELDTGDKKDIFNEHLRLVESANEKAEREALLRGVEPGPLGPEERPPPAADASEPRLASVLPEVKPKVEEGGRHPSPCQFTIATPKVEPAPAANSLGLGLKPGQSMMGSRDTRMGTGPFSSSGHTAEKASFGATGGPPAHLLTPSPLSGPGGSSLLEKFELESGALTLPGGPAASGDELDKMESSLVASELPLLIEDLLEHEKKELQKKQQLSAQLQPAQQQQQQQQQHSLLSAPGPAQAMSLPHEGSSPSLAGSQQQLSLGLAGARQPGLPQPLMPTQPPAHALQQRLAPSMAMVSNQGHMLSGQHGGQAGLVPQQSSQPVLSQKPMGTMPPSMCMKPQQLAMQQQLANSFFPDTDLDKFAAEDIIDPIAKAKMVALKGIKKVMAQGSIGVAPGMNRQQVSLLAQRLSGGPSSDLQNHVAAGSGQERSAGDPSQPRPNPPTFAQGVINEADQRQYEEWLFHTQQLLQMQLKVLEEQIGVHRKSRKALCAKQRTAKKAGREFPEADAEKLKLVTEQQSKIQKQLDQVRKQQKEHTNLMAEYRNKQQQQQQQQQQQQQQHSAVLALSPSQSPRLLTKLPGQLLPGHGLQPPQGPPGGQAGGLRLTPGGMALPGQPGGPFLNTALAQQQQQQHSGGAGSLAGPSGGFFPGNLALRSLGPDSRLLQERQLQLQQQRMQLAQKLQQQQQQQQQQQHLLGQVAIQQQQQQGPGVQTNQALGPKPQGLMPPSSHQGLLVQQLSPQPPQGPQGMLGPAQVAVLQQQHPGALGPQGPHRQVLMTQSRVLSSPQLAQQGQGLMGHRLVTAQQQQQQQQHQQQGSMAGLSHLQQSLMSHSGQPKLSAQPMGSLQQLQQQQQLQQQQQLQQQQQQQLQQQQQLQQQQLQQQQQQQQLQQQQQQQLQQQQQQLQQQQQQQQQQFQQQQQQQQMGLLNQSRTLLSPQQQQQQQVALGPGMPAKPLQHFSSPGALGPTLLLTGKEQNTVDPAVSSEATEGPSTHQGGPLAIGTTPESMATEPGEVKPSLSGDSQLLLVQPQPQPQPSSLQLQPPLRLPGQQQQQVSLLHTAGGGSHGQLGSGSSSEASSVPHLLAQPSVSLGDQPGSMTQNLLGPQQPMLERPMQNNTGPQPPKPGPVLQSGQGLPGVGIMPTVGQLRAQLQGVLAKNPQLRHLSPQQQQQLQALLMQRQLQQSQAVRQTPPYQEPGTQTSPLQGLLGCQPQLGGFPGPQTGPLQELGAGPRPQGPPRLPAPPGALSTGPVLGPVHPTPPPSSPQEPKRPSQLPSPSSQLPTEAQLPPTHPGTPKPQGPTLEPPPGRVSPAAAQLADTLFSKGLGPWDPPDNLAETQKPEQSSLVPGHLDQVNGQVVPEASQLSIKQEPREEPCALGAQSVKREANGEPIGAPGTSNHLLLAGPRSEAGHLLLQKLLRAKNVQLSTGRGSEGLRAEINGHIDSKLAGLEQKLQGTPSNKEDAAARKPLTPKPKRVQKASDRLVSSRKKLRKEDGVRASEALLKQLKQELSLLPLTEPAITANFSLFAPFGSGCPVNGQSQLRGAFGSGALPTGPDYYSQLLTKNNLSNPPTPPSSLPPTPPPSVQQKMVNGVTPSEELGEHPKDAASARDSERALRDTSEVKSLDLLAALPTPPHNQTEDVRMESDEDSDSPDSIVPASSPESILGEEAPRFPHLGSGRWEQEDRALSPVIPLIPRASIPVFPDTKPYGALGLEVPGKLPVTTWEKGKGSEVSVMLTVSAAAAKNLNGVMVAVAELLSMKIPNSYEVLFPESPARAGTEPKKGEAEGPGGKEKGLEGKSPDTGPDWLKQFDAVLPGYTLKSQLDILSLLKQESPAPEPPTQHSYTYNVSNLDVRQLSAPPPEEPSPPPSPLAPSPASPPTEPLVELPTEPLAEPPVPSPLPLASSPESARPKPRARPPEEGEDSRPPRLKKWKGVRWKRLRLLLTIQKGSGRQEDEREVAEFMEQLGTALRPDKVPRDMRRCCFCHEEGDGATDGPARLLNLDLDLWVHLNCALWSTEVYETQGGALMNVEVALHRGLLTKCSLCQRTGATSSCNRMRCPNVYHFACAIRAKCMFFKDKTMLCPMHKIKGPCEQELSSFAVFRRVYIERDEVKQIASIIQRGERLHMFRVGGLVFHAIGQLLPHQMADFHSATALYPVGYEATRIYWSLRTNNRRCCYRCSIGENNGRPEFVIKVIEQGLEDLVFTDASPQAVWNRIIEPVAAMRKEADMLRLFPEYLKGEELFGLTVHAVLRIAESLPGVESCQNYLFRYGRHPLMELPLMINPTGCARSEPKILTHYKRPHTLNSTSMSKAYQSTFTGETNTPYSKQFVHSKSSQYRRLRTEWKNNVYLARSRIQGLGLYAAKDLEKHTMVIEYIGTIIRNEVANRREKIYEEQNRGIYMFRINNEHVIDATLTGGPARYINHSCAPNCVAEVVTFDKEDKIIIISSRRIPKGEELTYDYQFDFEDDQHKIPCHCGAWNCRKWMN
# UniProt Q9H6V9: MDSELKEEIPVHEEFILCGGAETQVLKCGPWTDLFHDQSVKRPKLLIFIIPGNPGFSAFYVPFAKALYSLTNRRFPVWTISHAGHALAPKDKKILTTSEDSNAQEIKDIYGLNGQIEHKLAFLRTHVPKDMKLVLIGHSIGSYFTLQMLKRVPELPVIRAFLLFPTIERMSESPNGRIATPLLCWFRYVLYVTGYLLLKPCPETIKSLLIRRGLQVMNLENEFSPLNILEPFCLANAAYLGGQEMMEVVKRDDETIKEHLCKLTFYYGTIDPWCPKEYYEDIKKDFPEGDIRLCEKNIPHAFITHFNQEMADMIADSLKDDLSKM
# UniProt Q71RC2, 593-615: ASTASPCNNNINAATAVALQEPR
# UniProt Q9BW19: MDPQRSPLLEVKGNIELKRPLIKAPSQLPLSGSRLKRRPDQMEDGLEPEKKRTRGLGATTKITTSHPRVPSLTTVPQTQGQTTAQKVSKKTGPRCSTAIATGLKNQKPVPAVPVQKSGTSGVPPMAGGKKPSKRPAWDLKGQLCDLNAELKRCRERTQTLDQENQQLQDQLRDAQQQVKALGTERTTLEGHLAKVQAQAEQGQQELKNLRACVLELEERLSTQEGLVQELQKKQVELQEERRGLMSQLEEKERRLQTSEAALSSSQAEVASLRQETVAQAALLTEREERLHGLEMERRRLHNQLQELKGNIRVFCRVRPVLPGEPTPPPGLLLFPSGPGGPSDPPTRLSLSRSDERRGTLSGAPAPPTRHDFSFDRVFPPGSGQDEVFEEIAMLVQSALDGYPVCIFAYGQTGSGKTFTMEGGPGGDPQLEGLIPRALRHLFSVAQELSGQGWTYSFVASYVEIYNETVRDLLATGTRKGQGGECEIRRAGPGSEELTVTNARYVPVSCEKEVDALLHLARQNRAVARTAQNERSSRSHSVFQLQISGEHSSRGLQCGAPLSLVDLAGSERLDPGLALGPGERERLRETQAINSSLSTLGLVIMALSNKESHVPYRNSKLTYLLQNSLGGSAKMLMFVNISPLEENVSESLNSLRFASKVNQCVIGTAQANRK
# Compound: ClCC(=O)N[C@H]1CCCc2ccccc12
# Assay: log2 mean competition ratio of IA-DTB cysteine labelling (DMSO/compound) (log2 ratio); higher = stronger cysteine engagement by compound
# Conditions: 50 µM; treatment time: 4 h; cell line lysate: HEK293T
# Procedure: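 IA-DTB competitive cysteine chemoproteomics in HEK293T RIPA lysate. Lysates were treated with compound 29 or 30 at 50 or 200 µM for 4 h, then IA-DTB (500 µM, 1 h), trypsin-digested, NeutrAvidin-enriched and analysed by diaPASEF. Competition ratio = intensity DMSO / intensity compound (n=4 treated, n=64 DMSO); binding: mean log2 CR ≥ 1 and p ≤ 0.05 plus QC filters. Target is the cysteine site.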
row,Target,log2 mean competition ratio
1,LRBA C1228,-0.32
2,KMT2D C58 (UniProt O14686),-0.0987
3,LIMD1 C560 (UniProt Q9UGP4),-0.04
4,LIG1 C508 (UniProt P18858),0.0574
5,KLHDC3 C213 (UniProt Q9BQ90),-0.269
6,KNL1 C638 (UniProt Q8NG31),-0.308
7,LRP1 C2605 (UniProt Q07954),0.0153
8,LIMK1 C390 (UniProt P53667),-0.773
9,KMT2E C839 (UniProt Q8IZD2),0.237
10,KNTC1 C1107 (UniProt P50748),-0.15
11,KLRG2 C197,-0.0869
12,LOC102724159 C158,0.127
13,LDAH C261 (UniProt Q9H6V9),-0.347
14,LENG8 C643 (UniProt Q96PV6),-0.304
15,LARP4 C599 (UniProt Q71RC2),0.423
16,LEPROT C66 (UniProt O15243),0.0899
17,LCP1 C42 (UniProt P13796),-0.152
18,KMT2D C5230 (UniProt O14686),-0.859
19,LIN28B C201 (UniProt Q6ZN17),-0.237
20,KIFC1 C485 (UniProt Q9BW19),-0.00811

# Same assay, conditions: 200 µM; treatment time: 4 h; cell line lysate: HEK293T
row,Target,log2 mean competition ratio
1,LRBA C1228,-0.294
2,KMT2D C58 (UniProt O14686),0.0862
3,LIMD1 C560 (UniProt Q9UGP4),-0.41
4,LIG1 C508 (UniProt P18858),0.0113
5,KLHDC3 C213 (UniProt Q9BQ90),0.0503
6,KNL1 C638 (UniProt Q8NG31),0.17
7,LRP1 C2605 (UniProt Q07954),0.382
8,LIMK1 C390 (UniProt P53667),0.0983
9,KMT2E C839 (UniProt Q8IZD2),0.423
10,KNTC1 C1107 (UniProt P50748),-0.0189
11,KLRG2 C197,0.386
12,LOC102724159 C158,0.0035
13,LDAH C261 (UniProt Q9H6V9),-0.0952
14,LENG8 C643 (UniProt Q96PV6),-0.149
15,LARP4 C599 (UniProt Q71RC2),0.0635
16,LEPROT C66 (UniProt O15243),0.0946
17,LCP1 C42 (UniProt P13796),0.16
18,KMT2D C5230 (UniProt O14686),-0.182
19,LIN28B C201 (UniProt Q6ZN17),0.171
20,KIFC1 C485 (UniProt Q9BW19),-0.0848

# Reference: the supplement of paper PMC11732987, “Enantioselective OTUD7B fragment discovery through chemoproteomics screening and high-throughput optimisation” (Communications Chemistry, 2025)
